Source: PubChem BioAssay AID590 (National Center for Advancing Translational Sciences (NCATS), 2007)
In all, about 59,000 compounds went through this assay and about 6,500 (11%) were called active. Inconclusive results, whose numbers are uncertain, are shown with a selection of clear calls. No stated cut-off is given here; in the data, active means max dye-equivalent concentration above about 10 nM; inconclusive means mostly about 1.1 nM to 9.6 nM; inactive means weaker than that. A structure can be active in one record and inactive in another.

Assay: qHTS Assay for Spectroscopic Profiling in A350 Spectral Region
Conditions: Compound autofluorescence, 340/450 nm, Alexa 350 dye-equivalents; active compounds read high

| Structure (SMILES) | max dye-equivalent concentration | outcome |
| --- | --- | --- |
| Cc1sc2nc(SCC(=O)c3cccs3)n(Cc3ccco3)c(=O)c2c1C | inconclusive: 3 nM | – |
| CC(C)C[C@@H]1NC(=O)N(CCN2CCOCC2)C1=O | inconclusive: 1.1 nM | – |
| COc1cccc(-c2nn(C)c3sc(C(=O)NCc4ccco4)cc23)c1 | inconclusive: 2.5 nM | – |
| O=S1(=O)CC(N2CCOCC2)c2ccccc21 (stereo unspecified) | inconclusive: 1.1 nM | – |
| Cc1cccc2cc(COC(=O)C3CCCO3)c(=O)[nH]c12 (stereo unspecified) | inconclusive: 2.1 nM | – |
| CCCC1C(c2ccccc2)C(C#N)(C#N)C2(C#N)CC1(N)NC2=O (stereo unspecified) | inactive | – |
| COc1ccccc1-n1cc(C(=O)NCC(=O)N2CCN(c3ccccc3)CC2)c2ccccc2c1=O | active: 19 nM | – |
| COc1ccc(-c2noc(CSc3nc4ccccc4c(=O)n3-c3ccccc3)n2)cc1OC | inconclusive: 6.6 nM | – |
| COc1ccc(S(=O)(=O)N2CCCC(C(=O)NCCC3=CCCCC3)C2)cc1 (stereo unspecified) | inactive | – |
| COC(=O)c1ccccc1NC(=O)C1CCN(S(=O)(=O)c2cc(OC)ccc2OC)CC1 | inactive | – |
| Brc1ccc(-c2nc3ccccc3s2)s1 | active: 67 nM | – |
| C=CCn1c(NC(=O)c2ccccc2)c(C#N)c2nc3ccccc3nc21 | active: 170 nM | – |
| CC(=O)N(Cc1cc(=O)[nH]c2ccccc12)c1ccc(C)cc1 | inconclusive: 1.5 nM | – |
| CC(C)CCn1nnnc1C(c1ccc(N(C)C)cc1)N1CCN(C(=O)c2ccco2)CC1 (stereo unspecified) | active: 15 nM | – |
| O=c1c(-c2ccc(F)cc2)nc2cncnc2n1Cc1ccccc1 | inactive | – |
| CC1(C)CC(=O)C2=C(C1)Oc1nc3ccccc3cc1C2C(C#N)C#N (stereo unspecified) | inconclusive: 1.6 nM | – |
| CCOC(=O)CC1=C(C(=O)OCC)C(c2ccc(C)o2)C(C#N)=C(N)O1 (stereo unspecified) | inconclusive: 4.2 nM | – |
| Cc1cc(=O)oc(C)c1C(=O)NCC(C)C | active: 34 nM | – |
| Cn1c(SCc2c(F)cccc2Cl)nnc1-c1cnccn1 | inconclusive: 5.2 nM | – |
| Cn1c(N)c(C(=O)NCc2ccccc2Cl)sc1=S | inconclusive: 2 nM | – |
| CN1/C(=C/C(=O)C2CCC2)Sc2ccccc21 | inconclusive: 5.3 nM | – |
| Cc1ccc(S(=O)(=O)NC(=O)c2cc(C)n(CCCN3CCOCC3)c2C)cc1 | inconclusive: 4 nM | – |
| COC(=O)c1cc(S(=O)(=O)N2CCOCC2)ccc1Sc1ccccc1N | inconclusive: 1.5 nM | – |

| Structure (SMILES) | max dye-equivalent concentration | outcome |
| --- | --- | --- |
| CCN(CC)c1ccc(-n2cc3c(=O)n(C)c(=O)n(C)c3c2)cc1 | active: 24 nM | – |
| CCN1C(=O)CC(N2CCN(c3ccc(C(=O)c4ccccc4)cc3)CC2)C1=O (stereo unspecified) | inactive | – |
| COc1ccc(/C(O)=C2/C(=O)C(=O)N(CCCN(C)C)C2c2ccccc2)cc1OC (stereo unspecified) | inactive | – |
| COc1ccccc1OCC(=O)OCC(=O)Nc1ncc(Cl)cc1Cl | inconclusive: 5.7 nM | – |
| CCOc1ncccc1C(=O)OCC(=O)N1CC(=O)Nc2ccccc21 | inconclusive: 1.8 nM | – |
| COC(=O)c1ccc2c(c1)NC(=O)C(N1CCOCC1)S2 (stereo unspecified) | inconclusive: 4.8 nM | – |
| Cc1cc(C)nc(Nc2nc(C)c3cc4c(cc3n2)OCO4)n1 | active: 220 nM | – |
| O=C(c1cccc(F)c1)N1CCCC(C(=O)N2CCCC2)C1 (stereo unspecified) | inactive | – |
| Cc1nc2ccc(NC(=O)N3CCSCC3)cc2nc1C | active: 120 nM | – |
| Cc1ccc(C(=O)NCC(C)(C)O)cc1 | inconclusive: 5.8 nM | – |
| COc1ccc(C(=O)N2CCC[C@@]3(CCN(c4cccc(-c5ccccc5)c4)C3)C2)cc1 | inconclusive: 8.2 nM | – |
| CCOC(=O)Cc1c(C)c2c(C)[nH]nc2oc1=O | active: 39 nM | – |
| Cn1c(=O)c2c(nc(CN3CCOCC3)n2CCN2CCOCC2)n(C)c1=O | inconclusive: 3.6 nM | – |
| O=C(Nc1ccc(-c2cn3ccsc3n2)cc1)c1ccc(F)c(S(=O)(=O)N2CCOCC2)c1 | inconclusive: 2.1 nM | – |
| CCOC(=O)N1CCC(Nc2c(-c3ccc(C)cc3)c(=O)c2=O)CC1 | inactive | – |
| c1ccc2c(c1)CCOC2CNCCCN1CCCCC1 (stereo unspecified) | inconclusive: 1.5 nM | – |
| CCOCCCNC(=O)CN1CCN(c2ccc(F)cc2)CC1 | active: 2900 nM | – |
| CCNc1ncc2ncc(=O)n(C3CC3)c2n1 | active: 57 nM | – |
| Cc1cc(C)n2c(SCC(=O)Nc3cc(C)on3)nnc2n1 | inconclusive: 7.2 nM | – |
| Cc1cc(C)c(OCC(=O)Nc2ccccc2N2CCOCC2)c(C)c1 | inconclusive: 1.2 nM | – |
| Cc1sc2nc(SCc3nc4ccccc4[nH]3)n(Cc3ccco3)c(=O)c2c1C | inconclusive: 4.1 nM | – |
| COC(=O)[C@H]1CCCN1C(=O)Nc1cccc(Oc2c(F)c(F)c(F)c(F)c2F)c1 | inactive | – |
| CCn1c(SCC(=O)Nc2ccc3c(c2)OCO3)nnc1-c1ccccc1O | inactive | – |

Quoted at random: six entries already listed, in no set order.

| Structure (SMILES) | max dye-equivalent concentration | outcome |
| --- | --- | --- |
| CCOC(=O)N1CCC(Nc2c(-c3ccc(C)cc3)c(=O)c2=O)CC1 | inactive | – |
| CCN(CC)c1ccc(-n2cc3c(=O)n(C)c(=O)n(C)c3c2)cc1 | active: 24 nM | – |
| CCOC(=O)CC1=C(C(=O)OCC)C(c2ccc(C)o2)C(C#N)=C(N)O1 (stereo unspecified) | inconclusive: 4.2 nM | – |
| CCN1C(=O)CC(N2CCN(c3ccc(C(=O)c4ccccc4)cc3)CC2)C1=O (stereo unspecified) | inactive | – |
| O=c1c(-c2ccc(F)cc2)nc2cncnc2n1Cc1ccccc1 | inactive | – |
| Cc1cc(=O)oc(C)c1C(=O)NCC(C)C | active: 34 nM | – |

(further entries)

| Structure (SMILES) | max dye-equivalent concentration | outcome |
| --- | --- | --- |
| COc1ccc2cc(CN(CCCN3CCOCC3)Cc3nnnn3C3CCCCC3)c(=O)[nH]c2c1 | inconclusive: 7 nM | – |
| COc1ccc2c(c1)N1CCN=C1N2C | inactive | – |
| O=C(CSc1nnc(-c2ccco2)n1Cc1ccco1)NCc1cccs1 | inconclusive: 1.7 nM | – |
| O=C(CSc1nc(-c2ccco2)cc(C(F)(F)F)n1)N1CCCc2ccccc21 | inactive | – |
| CCNc1ncc2nc(-c3cccc(C#N)c3)c(=O)n(Cc3cccc(OC)c3)c2n1 | active: 14 nM | – |
| CCOC(=O)C1CCCN(C(=O)CCC(=O)Nc2ccc3nc(N4CCOCC4)cc(C)c3c2)C1 (stereo unspecified) | active: 1000 nM | – |
| COCCN(C(=O)CCC(=O)Nc1ccccn1)C(C(=O)NC1CCCC1)c1ccc(OC)cc1 (stereo unspecified) | inactive | – |
| CCCC(C)n1[nH]c(=O)c2c(C)cc(C)nc21 (stereo unspecified) | inconclusive: 3.7 nM | – |
| CCCCCn1c(N)c(C#N)c2nc3ccccc3nc21 | active: 1500 nM | – |
| Cc1ccc(C(c2nnnn2C(C)(C)C)N2CCc3ccccc3C2)cc1 (stereo unspecified) | inactive | – |
| Cc1nn2cnc3sc4c(c3c2nc1=O)CCCC4 | inconclusive: 1.1 nM | – |
| O=C(CN1C(=O)c2ccccc2S1(=O)=O)N1CCN(c2cccc(Cl)c2)CC1 | inactive | – |
| COCCn1c(=O)c(-c2cccc(C#N)c2)nc2cnc(N3CCOCC3)nc21 | active: 31 nM | – |
| O=C(N/N=C\c1ccc2c(c1)CCC2)c1ccccc1O | inconclusive: 1.2 nM | – |
| CO[C@@H]1/C=C\O[C@]2(C)Oc3c(C)c(O)c4c(O)c(c(CN5CCN(C)CC5)c(O)c4c3C2=O)NC(=O)/C(C)=C\C=C[C@@H](C)[C@@H](O)[C@H](C)[C@@H](O)[C@H](C)[C@H](OC(C)=O)[C@@H]1C | inconclusive: 5.6 nM | – |
| CCN1CCN(S(=O)(=O)c2cc(C)c(OC)cc2C)CC1 | active: 1100 nM | – |
| O=C(Nc1ccc(OC(F)(F)F)cc1)C1=NCCN1 | inactive | – |
| COc1cc(OC)c(N2CC34C=CC(O3)C(C(=O)O)C4C2=O)cc1Cl (stereo unspecified) | inactive | – |
| Cc1cc(C)nc(N2CCN(c3ncnc4c3cnn4Cc3ccc(Cl)cc3Cl)CC2)n1 | inconclusive: 4.7 nM | – |
| O=C(c1ccccc1F)N(Cc1ccccc1)C1CCS(=O)(=O)C1 (stereo unspecified) | inactive | – |
| CC[N+](C)(C)Cc1ccccc1Br | active: 17 nM | inactive |
| CCn1c(SCC(=O)Nc2ccc(N(C)C)cc2)nnc1-c1cccc(C)c1 | active: 16 nM | – |
| COc1ccc(S(=O)(=O)c2ccc(OC)c(OC)c2)cc1OC | inactive | – |

| Structure (SMILES) | max dye-equivalent concentration | outcome |
| --- | --- | --- |
| COCC(=O)N(CCc1ccc(OC)c(OC)c1)Cc1nc2ccccc2c(=O)[nH]1 | inconclusive: 5 nM | – |
| CCCc1cc(=O)n2[nH]c(-c3cc(OC)c(OC)c(OC)c3)nc2n1 | inconclusive: 3.3 nM | – |
| c1coc(C2Nc3ccccc3-c3nc4ccccc4n32)c1 (stereo unspecified) | active: 3400 nM | – |
| Cc1cc(O)c(-c2cc(O)c(C)cc2O)cc1O | active: 15 nM | – |
| COc1ccc(S(=O)(=O)NC(CC(=O)NCc2ccccc2OC)c2ccco2)cc1 (stereo unspecified) | inactive | – |
| O=C(NCC1CCCO1)c1cc(-c2ccco2)nc2ccccc12 (stereo unspecified) | active: 2300 nM | – |
| COc1cccc(Cn2c(=O)c(-c3cccs3)nc3cnc(N4CCNCC4)nc32)c1 | inconclusive: 8.3 nM | – |
| CCOc1ccc(CCNC(=O)c2cccnc2N2CCCC2)cc1OCC | inconclusive: 1.4 nM | – |
| Cc1nc(=O)c(-c2ccccc2)c(C)n1-c1ccccc1O | inactive | – |
| COc1cccc(CNc2nc3ccccc3n2CCN2CCCCC2)c1OC | inconclusive: 2.7 nM | – |
| COc1ccc(S(=O)(=O)N2CCCC(C(=O)Nc3ccc(NC(=O)c4ccccn4)cc3)C2)cc1 (stereo unspecified) | inconclusive: 8.6 nM | – |
| CC(C)CN(C(=O)COC(=O)c1cc2ccccc2oc1=O)C1CCS(=O)(=O)C1 (stereo unspecified) | active: 81 nM | – |
| NC[C@@H](O)CSCc1ccc(Cl)cc1 | inactive | – |
| CNc1cc(C)nc(-n2nc(C)cc2C)n1 | inconclusive: 3.2 nM | – |
| O=C(c1cnn2c(C(F)(F)F)cc(-c3ccco3)nc12)N1CCc2ccccc2C1 | active: 59 nM | – |
| CC(C)C[C@H](NC(=O)NCCc1ccc(Cl)cc1)C(=O)O | inconclusive: 1.6 nM | – |
| O=C(CN1CCOCC1)n1c2ccccc2c2ccccc21 | inconclusive: 2 nM | – |
| COCC(C)NC(=O)c1ccccc1OC(C)=O (stereo unspecified) | inconclusive: 1.6 nM | – |
| CCn1c(SCC(=O)N2CCOCC2)nc2oc3c(Cl)cc(Cl)cc3c(=O)c2c1=O | inconclusive: 1.2 nM | – |
| COCC(=O)N(Cc1cc2ccccc2[nH]c1=O)c1ccccc1OC | active: 530 nM | – |
| Cc1nnc(SC(C)C(=O)Nc2ccc3c(c2)OCCO3)s1 (stereo unspecified) | inconclusive: 6.1 nM | – |
